Measured data: PubChem BioAssay AID686938 (Drosophila RNAi Screening Center, 2013)
Test: 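Fly genes required for calcium entry once internal stores are emptied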 (primary screen). System: Drosophila S2R+ cells. Reagent: long dsRNA against Drosophila genes, about 0.25 µg dsRNA per well, roughly 10,000 cells. Duration: 5 days of knock-down before the calcium assay. Challenge: thapsigargin (SERCA pump blocker) to empty calcium stores; entry signal taken 4 min after adding it. Measurement: 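Per-well fluo-4 fluorescence in two replicates, unnormalised, measured in resting cells and 4 min after store depletion by the SERCA blocker thapsigargin; ratio of the two present in few wells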. Direction: calcium entry signal: higher = stronger calcium signal after store depletion; resting calcium signal: higher = higher resting calcium signal. Rule for the call: 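Hit if the duplicate-averaged plate z-score for entry over resting signal is under −3; wells with weak total dye signal (Fmax z < −2) or more than 5 off-targets removed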. Meaning of the calls: active = strongly reduced calcium entry; inactive = no strong reduction.
In all, the deposit lists about 23,000 reagents; this is a random part of those with a known target gene and a result. In the full data, 75 (0.33%) were called active. 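Raw plate signals without normalisation; calls rest on plate z-scores that were not deposited; ratio present for only 364 wells.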 Unmarked entries are inactive. The numbers tell different reagents against one gene apart. The record does not give: the dose of the treatment.

gene knocked down	reagent no.	calcium entry signal, replicate 1 (fluorescence units)	calcium entry signal, replicate 2 (fluorescence units)	resting calcium signal, replicate 1 (fluorescence units)	resting calcium signal, replicate 2 (fluorescence units)
CG43133	1	3.46e7	4.01e7	1.66e7	1.97e7
CG10657	1	4.51e7	5.20e7	3.05e7	2.56e7
Rgl	1	3.11e7	3.48e7	1.63e7	1.58e7
DppIII	1	2.79e7	2.63e7	1.24e7	1.22e7
TpnC4	1	3.86e7	3.69e7	1.73e7	1.64e7
CG31076	1	3.13e7	5.11e7	1.66e7	2.30e7
trp	1	3.53e7	5.91e7	1.85e7	2.45e7
Cyp4ae1	1	2.66e7	4.00e7	1.23e7	1.92e7
CG34214	1	4.34e7		2.08e7	
obst-G	1	2.82e7	3.85e7	1.54e7	1.75e7
Cdc37	1	4.45e7	3.89e7	2.40e7	2.17e7
Gtpx	1	3.63e7	2.46e7	2.57e7	1.17e7
Gtpx	2	2.23e7	6.47e7	1.12e7	2.67e7

In a second layout: results already given.
{"gene knocked down": "CG10657", "reagent no.": 1, "calcium entry signal, replicate 1 (fluorescence units)": 4.51e7, "calcium entry signal, replicate 2 (fluorescence units)": 5.20e7, "resting calcium signal, replicate 1 (fluorescence units)": 3.05e7, "resting calcium signal, replicate 2 (fluorescence units)": 2.56e7}
{"gene knocked down": "Rgl", "reagent no.": 1, "calcium entry signal, replicate 1 (fluorescence units)": 3.11e7, "calcium entry signal, replicate 2 (fluorescence units)": 3.48e7, "resting calcium signal, replicate 1 (fluorescence units)": 1.63e7, "resting calcium signal, replicate 2 (fluorescence units)": 1.58e7}
{"gene knocked down": "DppIII", "reagent no.": 1, "calcium entry signal, replicate 1 (fluorescence units)": 2.79e7, "calcium entry signal, replicate 2 (fluorescence units)": 2.63e7, "resting calcium signal, replicate 1 (fluorescence units)": 1.24e7, "resting calcium signal, replicate 2 (fluorescence units)": 1.22e7}

The listing continues:
gene knocked down	reagent no.	calcium entry signal, replicate 1 (fluorescence units)	calcium entry signal, replicate 2 (fluorescence units)	resting calcium signal, replicate 1 (fluorescence units)	resting calcium signal, replicate 2 (fluorescence units)
CG13876	1	3.34e7	4.80e7	1.63e7	2.25e7
maf-S	1	2.05e7	2.41e7	1.03e7	1.12e7
CG12538	1	3.12e7	5.26e7	1.64e7	7.29e7
Ugt35E2	1	2.53e7	2.24e7	1.31e7	1.13e7
PK2-R1	1	2.93e7	5.56e7	1.46e7	6.67e7
Cam	1	2.55e7	2.76e7	1.49e7	1.38e7
Cam	2	2.62e7	4.45e7	1.76e7	2.69e7
c(2)M	1	5.67e7		2.63e7	
MBD-R2	1	2.82e7	3.00e7	1.85e7	1.83e7
dpr11	1	4.53e7	2.97e7	2.32e7	1.56e7
dpr11	2	3.92e7	3.18e7	2.11e7	1.51e7
dpr11	3	4.80e7	3.33e7	2.18e7	1.64e7
